Conjugation yield data for one substance are collected here from patent US9901616 (dated 2018).

A short description of the data set: general procedure: peptide synthesis; glycine (G) based resin. The note with it: conjugation step.

Take PLGA-b-PEG-LIKKPF: the conjugation yield is 95%-55%.
